Negatives hold for the conditions tested. For part of these data: Construct, isoform or probe ends are uncertain for at least one entry. For part of these data: Protein sequences can lack the tags named with them. For part of these data: Weaker means in comparison with the reference protein, sequence or condition of that experiment.
Key:
streptavidin = streptavidin (UniProt P22629); experiment: flow cytometry (Ni-NTA beads); details: 5 mM Mg2+, 25 mM Tris-HCl pH 8.0, 100 mM NaCl, 5 mM MgCl2, room temperature, 1 h, 10 ug His-tagged protein captured on Ni-NTA agarose beads, recombinant protein, protein details: His, label: 5'-FAM, synthetic backbone, letters put together from the description
[1] = molecular target: T1, YkuD transpeptidase (Bacillus subtilis) (UniProt O34816); experiment: flow cytometry (Ni-NTA beads); details: 5 mM Mg2+, 25 mM Tris-HCl pH 8.0, 100 mM NaCl, 5 mM MgCl2, room temperature, 1 h, 10 ug His-tagged protein captured on Ni-NTA agarose beads, recombinant protein, protein details: His, label: 5'-FAM, synthetic backbone, letters put together from the description
T1 sequence (looked up, limits assumed): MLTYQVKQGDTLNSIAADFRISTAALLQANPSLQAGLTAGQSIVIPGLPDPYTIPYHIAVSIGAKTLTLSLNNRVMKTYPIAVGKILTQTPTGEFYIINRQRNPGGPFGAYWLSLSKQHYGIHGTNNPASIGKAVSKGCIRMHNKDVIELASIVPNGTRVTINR

Protein sequences, listed by entry. Tags and fused reporters are not part of them. Lines headed by an entry give the natural chain unless they say otherwise; changes in a name come on top.
UniProt P22629: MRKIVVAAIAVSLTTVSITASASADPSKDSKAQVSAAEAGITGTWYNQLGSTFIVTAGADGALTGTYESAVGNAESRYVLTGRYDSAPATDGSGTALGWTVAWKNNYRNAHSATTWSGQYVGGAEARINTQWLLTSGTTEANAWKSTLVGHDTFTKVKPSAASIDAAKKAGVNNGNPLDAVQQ

[2] = dUCOTc replaces every T after the 20-nt forward primer
[3] = dUCOTc (COT-carboxylate-modified dU) replaces every T after the 20-nt forward primer

Row | Sequence | binding result (streptavidin; [2]) | binding result ([1]; slightly above control, likely non-specific, dUCOTc replaces every T after the 20-nt forward primer) | binding result [1, 2] | binding result (streptavidin; [3]) | binding result [1, 3]
1 | CACTCACGTCAGTGACATGCAGGTCCTCTCGCCCCCAGTGACTTGCGTGGTCAGAAATTTCGCACCAC [N15 COTc aptamer] | no binding | binds more weakly | – | – | –
2 | CACTCACGTCAGTGACATGCCAAGCGAAGTTGTGCGCCCGCGTCGTGGTCGTCAGAAATTTCGCACCAC [N5 COTc aptamer] | no binding | – | no binding | – | –
3 | CACTCACGTCAGTGACATGCGCATTACGCAGCGCTGCGCAGCGAGTACCGGTCAGAAATTTCGCACCAC [N0 COTc aptamer] | – | – | – | no binding | no binding
